The record followed here is the supplement of paper PMC8728848.

Common to all, as to test: glycan array binding signal (z-score within array); higher = stronger binding
What all share (settings): glycan notation: IUPAC condensed, linker removed

For assay [1], the target named is GlcNAc(b1-2)[GlcNAc(b1-4)]Man(a1-3)[GlcNAc(b1-4)][GlcNAc(b1-2)Man(a1-6)]Man(b1-4)GlcNAc(b1-4)GlcNAc. In outline: (§1)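 Glycan array binding is given as a within-array Z-score, which can be read as non-binding when negative. The arrays, 3228 of them, came from the Consortium for Functional Glycomics database and were retained only where the protein sequence was available. Z-scores were averaged across arrays of the same protein sequence at different concentrations or buffers and across linkers.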

Assay [2] addresses GlcNAc(b1-2)[GlcNAc(b1-4)]Man(a1-3)[GlcNAc(b1-4)][GlcNAc(b1-2)[GlcNAc(b1-6)]Man(a1-6)]Man(b1-4)GlcNAc(b1-4)GlcNAc. The gist of the method: as §1
The target in assay [3] is GlcNAc(b1-2)[GlcNAc(b1-4)]Man(a1-3)[GlcNAc(b1-4)][GlcNAc(b1-2)[GlcNAc(b1-6)]Man(a1-6)]Man(b1-4)GlcNAc(b1-4)[Fuc(a1-6)]GlcNAc. In outline: as §1
Assay [4] addresses GlcNAc(b1-2)[GlcNAc(b1-6)]Man(a1-6)[GlcNAc(b1-2)Man(a1-3)]Man(b1-4)GlcNAc(b1-4)GlcNAc. The gist of the method:
as §1

The target in assay [5] is GlcNAc(b1-2)[GlcNAc(b1-6)]Man(a1-6)[GlcNAc(b1-2)Man(a1-3)]Man(b1-4)GlcNAc(b1-4)[Fuc(a1-6)]GlcNAc. In outline:
as §1

Assay [6] has as its target GlcNAc(b1-2)[GlcNAc(b1-6)]Man(a1-6)[GlcNAc(b1-4)][GlcNAc(b1-2)Man(a1-3)]Man(b1-4)GlcNAc(b1-4)GlcNAc. In outline: as §1
Assay [7] deals with GlcNAc(b1-3)Fuc. In outline:
as §1

Assay [8] has as its target GlcNAc(b1-3)Gal. In outline: as §1
For assay [9], the target named is GlcNAc(b1-3)Gal(b1-3)GalNAc. In outline:
as §1

In assay [10] the target is GlcNAc(b1-3)Gal(b1-4)Glc. In outline: as §1
Assay [11] has as its target GlcNAc(b1-3)Gal(b1-4)GlcNAc. The gist of the method: as §1
For assay [12], the target named is GlcNAc(b1-3)Gal(b1-4)GlcNAc(b1-2)Man(a1-3)[GlcNAc(b1-3)Gal(b1-4)GlcNAc(b1-2)Man(a1-6)]Man(b1-4)GlcNAc(b1-4)GlcNAc. In outline: as §1
Assay [13] addresses GlcNAc(b1-3)Gal(b1-4)GlcNAc(b1-2)Man(a1-3)[GlcNAc(b1-3)Gal(b1-4)GlcNAc(b1-2)Man(a1-6)]Man(b1-4)GlcNAc(b1-4)[Fuc(a1-6)]GlcNAc. In outline:
as §1

The target of assay [14] is GlcNAc(b1-3)Gal(b1-4)GlcNAc(b1-2)[GlcNAc(b1-3)Gal(b1-4)GlcNAc(b1-6)]Man(a1-6)[GlcNAc(b1-3)Gal(b1-4)GlcNAc(b1-2)Man(a1-3)]Man(b1-4)GlcNAc(b1-4)GlcNAc. In outline: as §1
The target of assay [15] is GlcNAc(b1-3)Gal(b1-4)GlcNAc(b1-3)Gal(b1-4)GlcNAc. In outline:
as §1

Assay [16] concerns the target GlcNAc(b1-3)Gal(b1-4)GlcNAc(b1-3)Gal(b1-4)GlcNAc(b1-2)Man(a1-3)[GlcNAc(b1-3)Gal(b1-4)GlcNAc(b1-3)Gal(b1-4)GlcNAc(b1-2)Man(a1-6)]Man(b1-4)GlcNAc(b1-4)GlcNAc. In outline:
as §1

For assay [17], the target named is GlcNAc(b1-3)Gal(b1-4)GlcNAc(b1-3)Gal(b1-4)GlcNAc(b1-2)Man(a1-3)[GlcNAc(b1-3)Gal(b1-4)GlcNAc(b1-3)Gal(b1-4)GlcNAc(b1-2)Man(a1-6)]Man(b1-4)GlcNAc(b1-4)[Fuc(a1-6)]GlcNAc. In outline: as §1
For assay [18], the target named is GlcNAc(b1-3)Gal(b1-4)GlcNAc(b1-3)Gal(b1-4)GlcNAc(b1-2)[GlcNAc(b1-3)Gal(b1-4)GlcNAc(b1-3)Gal(b1-4)GlcNAc(b1-6)]Man(a1-6)[GlcNAc(b1-3)Gal(b1-4)GlcNAc(b1-3)Gal(b1-4)GlcNAc(b1-2)Man(a1-3)]Man(b1-4)GlcNAc(b1-4)[Fuc(a1-6)]GlcNAc. In outline:
as §1

In assay [19] the target is GlcNAc(b1-3)Gal(b1-4)GlcNAc(b1-3)Gal(b1-4)GlcNAc(b1-3)Gal(b1-4)GlcNAc(b1-2)Man(a1-3)[GlcNAc(b1-3)Gal(b1-4)GlcNAc(b1-3)Gal(b1-4)GlcNAc(b1-3)Gal(b1-4)GlcNAc(b1-2)Man(a1-6)]Man(b1-4)GlcNAc(b1-4)GlcNAc. The gist of the method: as §1

The list shows a part of the results.

B1: HA-00510 (Pseudomonas aeruginosa), Q02V39_PSEAB (protein)
chain: GVPIVNIATPNGAGLSNNHFRDYNVGANGLILNNATGKTQGTQLGGIILGNPNLKGQAAQVILNQVTGGNRSTLAGYTEVAGQSARVIVANPHGITCQGCGFINTPRATLTTGKPIMDGQRLERFQVDGGDIVVEGAELNVGNLEQFDLITRSAKLNAKLYAKNLNIVTGRNDVQADSLQATPRAADGSEKPQLAIDSSALGGMYAGAIRLVGTEQGVGVKLAGDMAASGGDIRIDASGKLSLAQASSQGDLKIAAQAVELNGKTYAGGSAEIRSAEELVNRQS
Take B1: the “glycan array binding signal (z-score)” value in [1] is -0.97; in [2] it was -0.607; in [3], -0.463; in assay [4], -0.499; in assay [5], -0.51; in assay [6], -0.516. For the same molecule, the “glycan array binding signal (z-score)” value in assay [7] is -1.14; in [8], -1.14; in assay [9] it was -0.156; in [10], -0.779; in [11], -0.233; in [12], 0.009. The “glycan array binding signal (z-score)” value in assay [13] is 0.168; in [14] it was 0.061; in [15], 0.134; in [16] it was 4.3; in [17], 1.68; in assay [18], 1.5. Also, the “glycan array binding signal (z-score)” value in [19] was 1.57.
